{"source": "paper PMC6305444", "about": "“Advancement of the 5-Amino-1-(Carbamoylmethyl)-1H-1,2,3-Triazole-4-Carboxamide Scaffold to Disarm the Bacterial SOS Response” (Frontiers in Microbiology, 2018)", "tested_on": "recA promoter GFP reporter (SOS response)", "experiment": "Cell-based SOS reporter assay (GFP under recA promoter, ciprofloxacin-induced)", "details": "E. coli MG1655 ΔsulA ΔtolC, flow cytometry", "experimental": "An E. coli MG1655 strain lacking sulA (ΔsulA) and the tolC transporter (ΔtolC) ([Mo et al., 2016]) was transformed with a reporter plasmid in which gfp expression was under the control of the recA promoter (pMS201 pRecA GFP) ([Zaslaver et al., 2006]). To perform assays overnight, cultures of the reporter strain were diluted 100-fold in M9 minimal media and grown at 37°C with agitation to an OD595 of ∼0.6. For each reaction sample 100 μL of culture were mixed with 100 μL of M9 minimal media containing ciprofloxacin (256 ng/mL). Pre-diluted compounds were added (5 μL) in DMSO and cultures were incubated at 37°C with agitation for 2 h after which the cells were fixed by adding 200 μL of phosphate buffered saline, pH 7.4 containing 1% paraformaldehyde. After 1 h of fixing, the cells were spun down at 4,000 rpm and re-suspended in phosphate buffered saline, pH 7.4. Fixed cells were analyzed using flow cytometry (BD FACSCalibur, Ex/Em: 488 nm/530 nm) and the mean fluorescence of 20,000 cells in each condition was recorded.", "note": "Entries after “also recorded” stand apart in the source; their conditions may differ.", "data": [{"smiles": "CCOc1ccc(NC(=O)Cn2nnc(C(=O)Nc3ccccc3)c2N)cc1", "note": "[Compound 14, 5-amino-1-{2-[(4-ethoxyphenyl)amino]-2-oxoethyl}-N-phenyl-1H-1,2,3-triazole-4-carboxamide]", "values": [{"measurement": "effect on cell size (side-scatter)", "value": "not impacted; also recorded: without impacting cell size"}]}]}
